These are yes or no findings as the source states them, for the method shown. In cells and extracts the contact can be indirect. Some entries that bind do so weakly or less than the wild type.

Amino acid sequences for entries named in this document (tags omitted). A change or cut given only in a name is not applied to a line headed by its entry. Chains listed by the source or under a name are the forms on record and can include a tag or linker. Residues count along the entry.
UniProt Q07813: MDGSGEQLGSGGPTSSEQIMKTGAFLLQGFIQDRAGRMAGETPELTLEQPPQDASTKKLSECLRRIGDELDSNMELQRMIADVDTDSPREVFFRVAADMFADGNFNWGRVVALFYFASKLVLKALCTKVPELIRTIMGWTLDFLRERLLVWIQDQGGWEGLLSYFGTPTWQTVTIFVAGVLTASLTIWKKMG
wild-type Bcl-xL, GFP fusion protein derived from His-tagged ΔC Bcl-xL (Q07817, residues 1-209): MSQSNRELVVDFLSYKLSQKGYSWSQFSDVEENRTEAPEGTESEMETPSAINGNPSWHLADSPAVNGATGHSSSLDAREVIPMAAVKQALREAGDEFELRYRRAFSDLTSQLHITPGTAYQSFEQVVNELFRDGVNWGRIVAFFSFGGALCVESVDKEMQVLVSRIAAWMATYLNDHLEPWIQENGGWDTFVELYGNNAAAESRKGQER

The test deals with Bax (mouse (endogenous in TKPTS)) (UniProt Q07813). In words: co-IP; Bax (from untreated or tBid-adenovirus-treated TKPTS cells) held on anti-Bax antibody on Protein-G-Dynabeads; TKPTS and Bcl-xL-transfected TAL cells mixed and homogenised, post-nuclear fraction adjusted to 150 mM NaCl, 50 mM Tris pH 7.4, 4 °C, 18 h; bound proteins blotted for Bcl-xL and Bax.

Regarding “wild-type Bcl-xL, GFP fusion protein derived from His-tagged ΔC Bcl-xL (from UniProt Q07817-1 1-209) (domain or fragment)”, the binding entry was “binds”.

With “S73D Bcl-xL, GFP fusion protein derived from His-tagged ΔC Bcl-xL (from UniProt Q07817-1 1-209) (domain or fragment)”, the binding result is reported as “binds”.

Values taken from PMC4877050.
